The target of this assay is mCherry-NME1 (human) (UniProt P15531). Put plainly: FRET or BRET; FRET-FLIM (TCSPC) in live transfected HeLa cells at 37 °C; donor EGFP fusion, acceptor mCherry fusion; fraction of donors that experience FRET (DF) from a double-exponential fit; whole cells, and nucleus and cytoplasm apart; cells not irradiated or irradiated with 15 Gy gamma rays (Co-60).

By UniProt entry, the sequences of proteins in these tests, tags left out.
UniProt P15531: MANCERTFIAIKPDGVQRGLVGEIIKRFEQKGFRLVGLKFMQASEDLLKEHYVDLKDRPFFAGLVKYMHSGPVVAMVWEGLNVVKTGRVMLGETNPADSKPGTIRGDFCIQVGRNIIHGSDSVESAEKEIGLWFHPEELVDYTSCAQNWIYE

No constants are given. Whether binding was seen depends on the method and setting. In cells and extracts the contact can be indirect. Some results given as binding are weak or reduced against the parent protein; the word gives no strength.

Consider NME1-EGFP (from UniProt P15531 1-152), for which the binding result was “binds”.

Turning to EGFP-NME1 (from UniProt P15531 1-152), the binding entry is reported as “binds”.

Source of the values: PMC7177722.
